Holding throughout (experiment): co-IP
Assay [1] concerns the target HA-WT-TDP-43 (human) (UniProt Q13148).
The target of assay [2] is HA-RAD23A (UniProt P54725).
Assay [3] has as its target HA-tagged Q331K human TDP-43 (human) (UniProt Q13148).

No constants are given. Whether binding was seen depends on the method and setting. In cells and extracts the contact can be indirect. Some binding calls cover weakened binding; strength is not graded here.

B1: Ubiquitin specific peptidase 13 (USP13) (enzyme, UniProt Q92995 1-863)
chain: MQRRGALFGMPGGSGGRKMAAGDIGELLVPHMPTIRVPRSGDRVYKNECAFSYDSPNSEGGLYVCMNTFLAFGREHVERHFRKTGQSVYMHLKRHVREKVRGASGGALPKRRNSKIFLDLDTDDDLNSDDYEYEDEAKLVIFPDHYEIALPNIEELPALVTIACDAVLSSKSPYRKQDPDTWENELPVSKYANNLTQLDNGVRIPPSGWKCARCDLRENLWLNLTDGSVLCGKWFFDSSGGNGHALEHYRDMGYPLAVKLGTITPDGADVYSFQEEEPVLDPHLAKHLAHFGIDMLHMHGTENGLQDNDIKLRVSEWEVIQESGTKLKPMYGPGYTGLKNLGNSCYLSSVMQAIFSIPEFQRAYVGNLPRIFDYSPLDPTQDFNTQMTKLGHGLLSGQYSKPPVKSELIEQVMKEEHKPQQNGISPRMFKAFVSKSHPEFSSNRQQDAQEFFLHLVNLVERNRIGSENPSDVFRFLVEERIQCCQTRKVRYTERVDYLMQLPVAMEAATNKDELIAYELTRREAEANRRPLPELVRAKIPFSACLQAFSEPENVDDFWSSALQAKSAGVKTSRFASFPEYLVVQIKKFTFGLDWVPKKFDVSIDMPDLLDINHLRARGLQPGEEELPDISPPIVIPDDSKDRLMNQLIDPSDIDESSVMQLAEMGFPLEACRKAVYFTGNMGAEVAFNWIIVHMEEPDFAEPLTMPGYGGAASAGASVFGASGLDNQPPEEIVAIITSMGFQRNQAIQALRATNNNLERALDWIFSHPEFEEDSDFVIEMENNANANIISEAKPEGPRVKDGSGTYELFAFISHMGTSTMSGHYICHIKKEGRWVIYNDHKVCASERPPKDLGYMYFYRRIPS
Consider B1, for which the binding entry was “binds” in assay [1], “no binding” in assay [2] and “binds” in assay [3].
